# Among all 330,000 compounds or so, about 610 (0.18%) were called active. Inconclusive results, whose numbers are uncertain, are shown with a selection of clear calls. The call rests on the fitted dose curve. Potencies of inconclusive entries are doubtful fits and often do not repeat.
# Test: qHTS of Yeast-based Assay for SARS-CoV PLP; further: nearly all actives have a fitted effect of over 55% in size
# Settings: S. cerevisiae expressing SARS-CoV PLpro; Potency: growth rescue; series mostly up to 32.9 µM
# Potency means the concentration at half of the fitted maximal effect.
row,SMILES,Potency
1,CCOc1ccc(NC(=O)CN(C)C(=O)c2ccc(N3CCOCC3)c([N+](=O)[O-])c2)cc1OCC,"inconclusive: 12.6 µM [activator, single point]"
2,COc1ccccc1NS(=O)(=O)c1ccc(C(=O)N2CCCC(C)C2)cc1 (configuration not stated),"inconclusive: 20 µM [activator, single point]"
3,Cc1ccc(C(=O)c2oc3nc(C)cc(C)c3c2N)cc1,inactive
4,COc1ccc(/C=C2/C(=N)N3N=C(CC(=O)N4CCCC4)SC3=NC2=O)cc1,"inconclusive: 12.6 µM [activator, single point]"
5,C[C@@H]1O[C@@H](O[C@H]2C[C@@H](O)[C@]3(CO)[C@H]4[C@H](O)C[C@]5(C)[C@@H](C6COC(=O)C6)CC[C@]5(O)[C@@H]4CC[C@]3(O)C2)[C@H](O)[C@H](O)[C@H]1O (some centres not stated),"inconclusive: 20 µM [activator, single point]"
6,COc1ccc(/C=C2/C(=O)NC(=S)N(C3CC3)C2=O)cc1CN1C(=O)c2ccccc2C1=O,"inconclusive: 20 µM [activator, single point]"
7,COc1cccc(C(=O)NCCSCc2ccccc2Cl)c1,"inconclusive: 20 µM [activator, single point]"
8,CCOc1ccccc1NC(=O)CN(C)S(=O)(=O)c1ccc2[nH]c(=O)oc2c1,"inconclusive: 3.98 µM [activator, single point]"
9,CCc1ccc(C2=CC(c3cc(Br)ccc3F)n3ncnc3N2)cc1 (configuration not stated),"inconclusive: 7.94 µM [activator, partial curve]"
10,Cc1ccc(C2CC2c2n[nH]c(=S)n2-c2ccc(C)cc2)cc1 (configuration not stated),"inconclusive: 11.2 µM [activator, single point]"
11,Cc1ccc2nc(S(=O)(=O)O)[nH]c2c1,"inconclusive: 22.4 µM [activator, single point]"
12,c1ccc(CNCCC(Cc2ccccc2)c2ccco2)cc1 (configuration not stated),inactive
13,CCOC(=O)Cn1nnc2c(sc3nc4c(c(-c5ccc(Cl)cc5)c32)CCC4)c1=O,"inconclusive: 2.82 µM [activator, partial curve]"
14,Cc1cccc2c3nc4ccccc4nc3n(CCCN3C(=O)c4ccccc4C3=O)c12,"inconclusive: 4.47 µM [activator, single point]"
15,Cc1ccc(-c2nnc(N3CCCCC3)c3ccccc23)cc1S(=O)(=O)NCC1CCCO1 (configuration not stated),inactive
16,CCOC(=O)c1oc2cc(C)cc(O)c2c(=O)c1-c1csc(C)n1,inactive
17,CCOCCCNC(=O)C(NC(=O)c1ccc(NC(C)=O)cc1)c1ccccc1 (configuration not stated),"inconclusive: 20 µM [activator, single point]"

# 2 of the compounds above, as tab-separated lines.
row	SMILES	Potency
7	COc1cccc(C(=O)NCCSCc2ccccc2Cl)c1	inconclusive: 20 µM [activator, single point]
8	CCOc1ccccc1NC(=O)CN(C)S(=O)(=O)c1ccc2[nH]c(=O)oc2c1	inconclusive: 3.98 µM [activator, single point]

# Reference: PubChem BioAssay AID485353 (National Center for Advancing Translational Sciences (NCATS), 2010)
